# Reference: PubChem BioAssay AID1508597 (Cure First, 2020)
# Purpose: 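Knock-downs altering ovarian cancer cell survival with or without PARP inhibitor rucaparib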 (primary screen)
# Cells: human ovarian carcinoma lines grown from tumours: OCI-P5x (papillary serous) and OCI-C5x (clear cell)
# Knock-down reagent: siRNA pool against human genes, 1.25 pmol siRNA per well
# Timing: 72 h or 96 h, depending on the cell culture
# Treatment: rucaparib 20 µM (about IC30) or vehicle, present until read-out
# Rucaparib or vehicle: Rucaparib
# Cell line: OCI-C5x (clear cell)
# Detection: 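Luminescent ATP-based viability assay read 72 or 96 h after transfection, depending on culture, given as normalised percent viability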
# Scale: viability, normalised: higher = more viable cells remaining
# Hit rule: 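Active when normalised viability falls below 80 percent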
# Meaning of the calls: active = viability under 80%; inactive = viability 80% or more
# Shown is an unselected part of the about 2,100 reagents, under one of the conditions tested. 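Calls flag viability under 80% in either arm, not effects specific to rucaparib; the reference for percent is not stated.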 A reagent listed more than once was tested more than once; the source does not tell the runs apart. The record does not give: the 100% reference.
gene,technical replicate,"viability, normalised (%)",Outcome
BBS7 (GeneID 55212),1,74.4,active
BBS7 (GeneID 55212),2,58.3,active
BBS7 (GeneID 55212),3,45.6,active
CHRAC1 (GeneID 54108),1,68.5,active
CHRAC1 (GeneID 54108),2,62.4,active
CHRAC1 (GeneID 54108),3,62,active
FES (GeneID 2242),1,27,active
FES (GeneID 2242),2,29.7,active
FES (GeneID 2242),3,37.5,active
PRDM16 (GeneID 63976),1,60.9,active
PRDM16 (GeneID 63976),2,39.2,active
PRDM16 (GeneID 63976),3,34.6,active
RRM2B (GeneID 50484),1,62.1,active
RRM2B (GeneID 50484),2,51.6,active
RRM2B (GeneID 50484),3,45.5,active
DHX15 (GeneID 1665),1,66.1,active
DHX15 (GeneID 1665),2,46.5,active
DHX15 (GeneID 1665),3,53.1,active
SMPDL3A (GeneID 10924),1,69.5,active
SMPDL3A (GeneID 10924),2,65,active
SMPDL3A (GeneID 10924),3,50.9,active
ASCC3 (GeneID 10973),1,59.8,active
ASCC3 (GeneID 10973),2,39.1,active
ASCC3 (GeneID 10973),3,54.7,active
CDKL3 (GeneID 51265),1,72.8,active
CDKL3 (GeneID 51265),2,46.3,active
CDKL3 (GeneID 51265),3,84.6,inactive
PRP4K (GeneID 8899),1,70.9,active
PRP4K (GeneID 8899),2,53.8,active
PRP4K (GeneID 8899),3,58,active
DGKG (GeneID 1608),1,42.8,active
DGKG (GeneID 1608),2,45.5,active
DGKG (GeneID 1608),3,37.5,active
TAF1 (GeneID 6872),1,49.8,active
TAF1 (GeneID 6872),1,40.4,active
TAF1 (GeneID 6872),2,50.9,active
TAF1 (GeneID 6872),2,53.8,active
TAF1 (GeneID 6872),3,39.2,active
TAF1 (GeneID 6872),3,36.9,active
MLLT1 (GeneID 4298),1,57.4,active
MLLT1 (GeneID 4298),2,71,active
MLLT1 (GeneID 4298),3,67.8,active
FECH (GeneID 2235),1,42,active
FECH (GeneID 2235),2,57,active
FECH (GeneID 2235),3,39.5,active
XYLB (GeneID 9942),1,48.3,active
XYLB (GeneID 9942),2,48,active
XYLB (GeneID 9942),3,50.7,active
AGO4 (GeneID 192670),1,37.3,active
AGO4 (GeneID 192670),2,43,active
AGO4 (GeneID 192670),3,36.7,active
PTP4A2 (GeneID 8073),1,71.3,active
PTP4A2 (GeneID 8073),2,62,active
PTP4A2 (GeneID 8073),3,63.5,active
CBX2 (GeneID 84733),1,42.9,active
CBX2 (GeneID 84733),2,55.6,active
CBX2 (GeneID 84733),3,39.4,active
